Reference: article PMC9859754, “Multivalent interactions facilitate motor-dependent protein accumulation at growing microtubule plus-ends” (Nature Cell Biology, 2022)
Results are given in words; binding and its absence hold for the method and conditions named. Some entries that bind do so weakly or less than the wild type. Tags and fused reporters may be left off the sequences shown.

How the values were obtained:
[1] = target: T1, Full-length S. pombe Tea2, unlabelled (S. pombe) (UniProt Q1MTQ1); experiment: TIRF microscopy of purified fluorescent proteins on microtubules; plus-end-tracking reconstitution without PEG: 200 nM Mal3 or Mal3 construct, 20 nM Tea2, 150 nM Tip1 together on dynamic microtubules grown from surface-bound GMPCPP seeds; MRB80, 50 mM KCl, 14.5 µM tubulin, 0.5 µM rhodamine tubulin, 1 mM GTP, 2 mM ATP, 0.1% methylcellulose; both purified
T1 sequence: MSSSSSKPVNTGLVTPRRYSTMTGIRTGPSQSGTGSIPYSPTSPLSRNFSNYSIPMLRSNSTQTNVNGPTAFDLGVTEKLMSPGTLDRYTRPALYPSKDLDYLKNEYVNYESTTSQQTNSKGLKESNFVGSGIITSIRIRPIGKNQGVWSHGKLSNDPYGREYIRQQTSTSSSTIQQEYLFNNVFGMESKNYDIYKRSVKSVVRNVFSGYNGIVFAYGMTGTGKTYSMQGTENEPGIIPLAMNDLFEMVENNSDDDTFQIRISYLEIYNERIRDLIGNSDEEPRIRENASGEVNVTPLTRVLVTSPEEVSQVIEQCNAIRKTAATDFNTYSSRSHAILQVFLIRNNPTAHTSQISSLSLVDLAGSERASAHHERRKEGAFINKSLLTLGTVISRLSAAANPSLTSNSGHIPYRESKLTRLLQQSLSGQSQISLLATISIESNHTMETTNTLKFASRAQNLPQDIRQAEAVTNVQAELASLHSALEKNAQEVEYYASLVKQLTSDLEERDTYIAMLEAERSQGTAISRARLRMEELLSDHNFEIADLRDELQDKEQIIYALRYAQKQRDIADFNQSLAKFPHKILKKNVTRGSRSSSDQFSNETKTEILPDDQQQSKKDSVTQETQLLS

[2] = target: T2, Mal3-Alexa647 (S. pombe) (UniProt Q10113); experiment: as above
T2 sequence (chain, Alexa Fluor 647 (TFP ester labelling, sites not stated)): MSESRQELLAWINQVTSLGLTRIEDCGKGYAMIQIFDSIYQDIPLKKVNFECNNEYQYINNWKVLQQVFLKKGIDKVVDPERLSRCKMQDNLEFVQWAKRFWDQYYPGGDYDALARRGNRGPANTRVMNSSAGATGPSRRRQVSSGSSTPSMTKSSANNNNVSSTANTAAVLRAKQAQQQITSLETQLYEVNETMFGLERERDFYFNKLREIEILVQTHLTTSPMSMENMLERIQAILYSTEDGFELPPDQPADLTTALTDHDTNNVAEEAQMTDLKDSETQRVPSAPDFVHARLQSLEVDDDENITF

B1: Tip1:GFP (protein, UniProt P79065 1-461)
chain: MFPLGSVVEVITGERGFVRYAGEVENRKGVYVGLELLPEFAEFGKNRGVVDGREYFKTKNNEKTGIFVPFDKCKLASSISSSPSPKIDGTAASIGMGFPPMSPNLQSSIPRLTNVSSSSNLSMNTISSTALTPTEKILQKRIEDLLYERQNHQQQLEEVLATVDQLQSLVTNFNDQQDEVDELRERITLKEERIQQMRNEASQRRFEFKTTIECLEESSNRAIETYENRIAELEAQLEMYMSGKSEDDLLFSLQQERDYALNQVEILQERVDTLMKQKANSSTANEKLSHMESSSPTLTNASFESPKRGKGSNDLPENHPQRRQTLEFYEIEIEVLREKVEKLQALSDEKDFYISKLEKSLDRNDTTPVPSDEKLSNYAAEKENLVSRISELEHTIEQLTINNERDNERMSPAEFELETTQEVEENDSDSHDDEETWCEVCETNNHSLQECPTVFGSTDEA
In the case of B1, the binding [1] is reported as “binds” and the binding [2] is reported as “binds”.
